Laboratory results: patent US20050208496A1, “Methods of testing for bronchial asthma or chronic obstructive pulmonary disease” (Genox Research, Inc., priority 2002, published 2005)

Tested on: mouse counterpart genes
Assay: Mouse GeneChip (MG-U74A to MG-U74C) analysis of lung and trachea of the OVA antigen-exposed bronchial hypersensitivity model, S-Sal group versus S-OVA group
Format: in vivo
Details: MASM5, mouse GeneChip expression ratio of the mouse counterpart gene (probe); for 1st: 1st experiment; for 2nd: 2nd experiment; for 3rd: 3rd experiment

Row | Substance | 1st | 2nd | 3rd
1 | amphiregulin | 0.8 | 0.56 | 0.7
2 | ceruloplasmin | 1.6 | 3.1 | 2.2
